Assay results reported in patent US11136339B2, “Dihydroartemisinin diploid derivative, pharmaceutical composition thereof, and application” (priority 2017, dated 2021).
At least one structure is not confirmed: it was looked up by name or label, or the drawing left a doubt.

Tests used:
[1] = tested on: lupus model of a MRL/lpr mouse; assay: Animal test on treating systemic lupus erythematosus; assay type: in vivo; conditions: after eight weeks
[2] = tested on: imiquimod model mice (psoriasis); assay: Effect on an animal with psoriasis; assay type: in vivo; conditions: applied to back twice a day for 8 consecutive days

With `C[C@H]1[C@@H](O)O[C@@H]2O[C@@]3(C)CC[C@H]4[C@H](C)CC[C@@H]1[C@@]24OO3` [Dihydroartemisinin] the urine protein level ([1]; BCA) was “decreased compared with the untreated group”, the spleen size ([1]; intravenous 2 mg once every two days) was “significantly decreased compared with the untreated group” and the skin lesion symptom [2] was “also improved, but is not as obvious as that of the mouse in the liposome group”.
